Test results from the supplement of paper PMC10849652.
This is one part of the list.

Chains of the proteins cited; added tags and fusions are not shown. Lines headed by an entry give the natural chain unless they say otherwise; changes in a name come on top.
UniProt Q9BXR0: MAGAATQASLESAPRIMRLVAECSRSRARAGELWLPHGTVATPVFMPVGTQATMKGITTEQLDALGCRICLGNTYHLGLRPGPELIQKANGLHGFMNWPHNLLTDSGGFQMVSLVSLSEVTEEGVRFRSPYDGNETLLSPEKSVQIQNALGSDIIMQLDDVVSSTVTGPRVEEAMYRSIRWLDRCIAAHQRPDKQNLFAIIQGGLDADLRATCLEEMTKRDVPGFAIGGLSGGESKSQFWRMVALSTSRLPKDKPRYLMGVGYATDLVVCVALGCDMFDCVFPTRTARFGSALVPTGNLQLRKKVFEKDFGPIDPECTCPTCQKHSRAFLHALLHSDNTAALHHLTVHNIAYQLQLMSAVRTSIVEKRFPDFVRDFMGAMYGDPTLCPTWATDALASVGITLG
UniProt P62834: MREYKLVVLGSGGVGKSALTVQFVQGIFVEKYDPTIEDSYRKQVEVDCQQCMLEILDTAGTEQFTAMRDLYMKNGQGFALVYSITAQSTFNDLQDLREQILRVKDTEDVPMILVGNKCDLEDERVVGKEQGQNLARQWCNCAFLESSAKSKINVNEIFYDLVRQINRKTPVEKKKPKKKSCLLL
UniProt Q9UL26: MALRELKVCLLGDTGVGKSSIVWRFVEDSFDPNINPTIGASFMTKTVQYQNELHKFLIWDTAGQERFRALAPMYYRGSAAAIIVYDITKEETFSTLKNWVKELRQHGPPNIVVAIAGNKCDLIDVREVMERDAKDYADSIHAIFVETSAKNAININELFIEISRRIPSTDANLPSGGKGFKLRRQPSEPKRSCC
UniProt Q53S08: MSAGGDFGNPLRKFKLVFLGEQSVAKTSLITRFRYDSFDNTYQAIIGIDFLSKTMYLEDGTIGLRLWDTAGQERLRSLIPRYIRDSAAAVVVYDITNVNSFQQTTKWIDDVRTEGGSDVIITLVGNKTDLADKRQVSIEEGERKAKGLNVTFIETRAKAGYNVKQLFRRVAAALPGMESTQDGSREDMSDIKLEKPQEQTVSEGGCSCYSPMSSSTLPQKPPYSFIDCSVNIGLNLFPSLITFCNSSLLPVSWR
UniProt Q9ULC3: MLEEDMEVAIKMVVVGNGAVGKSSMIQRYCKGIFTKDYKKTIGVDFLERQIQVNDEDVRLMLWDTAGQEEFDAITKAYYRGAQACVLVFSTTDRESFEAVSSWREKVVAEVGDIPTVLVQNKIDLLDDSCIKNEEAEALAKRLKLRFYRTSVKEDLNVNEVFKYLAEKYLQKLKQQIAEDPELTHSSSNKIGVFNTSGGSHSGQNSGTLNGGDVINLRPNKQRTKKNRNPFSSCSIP
UniProt Q15032: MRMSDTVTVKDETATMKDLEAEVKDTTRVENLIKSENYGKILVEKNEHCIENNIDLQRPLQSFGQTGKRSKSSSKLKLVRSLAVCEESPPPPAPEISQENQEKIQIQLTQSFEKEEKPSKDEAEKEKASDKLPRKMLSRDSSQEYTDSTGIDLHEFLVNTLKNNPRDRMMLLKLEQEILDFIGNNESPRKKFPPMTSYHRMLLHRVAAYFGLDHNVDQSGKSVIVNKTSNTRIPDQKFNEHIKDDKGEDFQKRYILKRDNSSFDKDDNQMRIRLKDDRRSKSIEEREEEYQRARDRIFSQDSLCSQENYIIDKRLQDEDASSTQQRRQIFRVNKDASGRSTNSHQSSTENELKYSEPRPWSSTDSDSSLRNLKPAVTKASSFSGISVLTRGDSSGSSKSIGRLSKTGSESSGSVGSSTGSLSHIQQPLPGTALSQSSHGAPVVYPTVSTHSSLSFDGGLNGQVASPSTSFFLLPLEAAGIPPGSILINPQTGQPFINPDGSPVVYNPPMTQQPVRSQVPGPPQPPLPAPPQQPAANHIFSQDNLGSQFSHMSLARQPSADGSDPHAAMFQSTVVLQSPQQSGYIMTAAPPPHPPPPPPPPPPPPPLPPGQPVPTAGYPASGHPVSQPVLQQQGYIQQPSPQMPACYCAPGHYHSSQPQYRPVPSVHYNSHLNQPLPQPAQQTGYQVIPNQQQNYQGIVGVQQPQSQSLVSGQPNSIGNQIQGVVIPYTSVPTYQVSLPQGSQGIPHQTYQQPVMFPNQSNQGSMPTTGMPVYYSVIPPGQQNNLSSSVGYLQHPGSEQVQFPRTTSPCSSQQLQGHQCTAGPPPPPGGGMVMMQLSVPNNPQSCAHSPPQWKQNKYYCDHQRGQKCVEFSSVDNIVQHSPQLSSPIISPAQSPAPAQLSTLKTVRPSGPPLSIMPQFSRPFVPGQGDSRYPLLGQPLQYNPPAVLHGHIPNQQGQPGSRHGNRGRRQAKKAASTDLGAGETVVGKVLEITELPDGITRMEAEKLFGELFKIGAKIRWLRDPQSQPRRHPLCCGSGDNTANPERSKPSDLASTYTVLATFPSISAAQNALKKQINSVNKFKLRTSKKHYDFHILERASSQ
UniProt P51159: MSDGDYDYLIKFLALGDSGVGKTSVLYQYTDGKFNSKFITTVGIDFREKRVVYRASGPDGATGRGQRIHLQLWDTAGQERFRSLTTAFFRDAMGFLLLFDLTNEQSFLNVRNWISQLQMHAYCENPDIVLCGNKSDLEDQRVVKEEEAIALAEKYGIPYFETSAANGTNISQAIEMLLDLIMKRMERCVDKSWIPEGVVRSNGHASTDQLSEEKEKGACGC
UniProt P10114: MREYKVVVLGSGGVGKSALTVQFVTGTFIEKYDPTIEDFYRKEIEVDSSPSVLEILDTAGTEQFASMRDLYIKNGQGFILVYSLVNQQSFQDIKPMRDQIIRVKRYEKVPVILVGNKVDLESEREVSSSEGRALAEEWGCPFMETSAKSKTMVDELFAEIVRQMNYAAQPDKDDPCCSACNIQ
UniProt Q9H5N1: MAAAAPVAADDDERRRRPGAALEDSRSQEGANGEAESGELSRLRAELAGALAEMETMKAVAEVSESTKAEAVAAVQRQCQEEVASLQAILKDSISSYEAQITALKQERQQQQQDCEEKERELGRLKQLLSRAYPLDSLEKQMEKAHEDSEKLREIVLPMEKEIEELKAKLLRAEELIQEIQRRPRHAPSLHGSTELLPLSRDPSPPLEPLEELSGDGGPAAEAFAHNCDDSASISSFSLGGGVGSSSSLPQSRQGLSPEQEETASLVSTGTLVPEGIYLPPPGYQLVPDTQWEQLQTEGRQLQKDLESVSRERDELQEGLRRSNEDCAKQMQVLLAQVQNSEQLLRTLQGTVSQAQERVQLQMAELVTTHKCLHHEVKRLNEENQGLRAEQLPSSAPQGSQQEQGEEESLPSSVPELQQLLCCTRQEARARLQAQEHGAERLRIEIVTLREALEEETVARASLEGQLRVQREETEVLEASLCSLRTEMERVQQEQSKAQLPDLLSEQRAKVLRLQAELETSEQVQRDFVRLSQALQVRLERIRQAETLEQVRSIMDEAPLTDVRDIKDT
UniProt Q15907: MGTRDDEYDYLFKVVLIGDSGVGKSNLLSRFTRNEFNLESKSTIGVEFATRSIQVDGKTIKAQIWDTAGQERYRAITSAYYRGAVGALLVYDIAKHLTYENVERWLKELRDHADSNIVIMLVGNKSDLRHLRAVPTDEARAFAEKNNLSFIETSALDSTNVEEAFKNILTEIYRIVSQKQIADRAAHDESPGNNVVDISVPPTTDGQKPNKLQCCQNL
UniProt Q8TBN0: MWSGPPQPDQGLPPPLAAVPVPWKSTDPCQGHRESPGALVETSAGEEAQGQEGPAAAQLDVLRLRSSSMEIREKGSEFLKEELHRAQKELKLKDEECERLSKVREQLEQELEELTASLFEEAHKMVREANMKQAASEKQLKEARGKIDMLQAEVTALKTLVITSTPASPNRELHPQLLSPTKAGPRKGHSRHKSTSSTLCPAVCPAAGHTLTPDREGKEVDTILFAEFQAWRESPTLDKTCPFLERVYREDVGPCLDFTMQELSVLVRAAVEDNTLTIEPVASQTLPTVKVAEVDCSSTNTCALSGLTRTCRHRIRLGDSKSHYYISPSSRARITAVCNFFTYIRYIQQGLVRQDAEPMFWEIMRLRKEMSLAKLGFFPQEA
UniProt Q9UI14, whole entry, looked up: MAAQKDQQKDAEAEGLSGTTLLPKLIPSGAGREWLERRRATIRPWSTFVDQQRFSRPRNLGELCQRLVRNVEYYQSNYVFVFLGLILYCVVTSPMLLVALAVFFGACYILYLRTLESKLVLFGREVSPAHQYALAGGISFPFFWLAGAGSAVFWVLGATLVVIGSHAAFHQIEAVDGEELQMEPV
UniProt O60671: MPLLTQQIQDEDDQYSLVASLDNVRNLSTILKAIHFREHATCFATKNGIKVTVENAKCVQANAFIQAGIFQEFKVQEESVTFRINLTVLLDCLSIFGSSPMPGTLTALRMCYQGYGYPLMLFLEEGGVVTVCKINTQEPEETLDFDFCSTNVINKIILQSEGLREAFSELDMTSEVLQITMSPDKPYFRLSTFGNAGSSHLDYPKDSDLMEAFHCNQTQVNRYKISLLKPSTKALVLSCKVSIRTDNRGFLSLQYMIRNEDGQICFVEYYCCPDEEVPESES
UniProt Q86X10: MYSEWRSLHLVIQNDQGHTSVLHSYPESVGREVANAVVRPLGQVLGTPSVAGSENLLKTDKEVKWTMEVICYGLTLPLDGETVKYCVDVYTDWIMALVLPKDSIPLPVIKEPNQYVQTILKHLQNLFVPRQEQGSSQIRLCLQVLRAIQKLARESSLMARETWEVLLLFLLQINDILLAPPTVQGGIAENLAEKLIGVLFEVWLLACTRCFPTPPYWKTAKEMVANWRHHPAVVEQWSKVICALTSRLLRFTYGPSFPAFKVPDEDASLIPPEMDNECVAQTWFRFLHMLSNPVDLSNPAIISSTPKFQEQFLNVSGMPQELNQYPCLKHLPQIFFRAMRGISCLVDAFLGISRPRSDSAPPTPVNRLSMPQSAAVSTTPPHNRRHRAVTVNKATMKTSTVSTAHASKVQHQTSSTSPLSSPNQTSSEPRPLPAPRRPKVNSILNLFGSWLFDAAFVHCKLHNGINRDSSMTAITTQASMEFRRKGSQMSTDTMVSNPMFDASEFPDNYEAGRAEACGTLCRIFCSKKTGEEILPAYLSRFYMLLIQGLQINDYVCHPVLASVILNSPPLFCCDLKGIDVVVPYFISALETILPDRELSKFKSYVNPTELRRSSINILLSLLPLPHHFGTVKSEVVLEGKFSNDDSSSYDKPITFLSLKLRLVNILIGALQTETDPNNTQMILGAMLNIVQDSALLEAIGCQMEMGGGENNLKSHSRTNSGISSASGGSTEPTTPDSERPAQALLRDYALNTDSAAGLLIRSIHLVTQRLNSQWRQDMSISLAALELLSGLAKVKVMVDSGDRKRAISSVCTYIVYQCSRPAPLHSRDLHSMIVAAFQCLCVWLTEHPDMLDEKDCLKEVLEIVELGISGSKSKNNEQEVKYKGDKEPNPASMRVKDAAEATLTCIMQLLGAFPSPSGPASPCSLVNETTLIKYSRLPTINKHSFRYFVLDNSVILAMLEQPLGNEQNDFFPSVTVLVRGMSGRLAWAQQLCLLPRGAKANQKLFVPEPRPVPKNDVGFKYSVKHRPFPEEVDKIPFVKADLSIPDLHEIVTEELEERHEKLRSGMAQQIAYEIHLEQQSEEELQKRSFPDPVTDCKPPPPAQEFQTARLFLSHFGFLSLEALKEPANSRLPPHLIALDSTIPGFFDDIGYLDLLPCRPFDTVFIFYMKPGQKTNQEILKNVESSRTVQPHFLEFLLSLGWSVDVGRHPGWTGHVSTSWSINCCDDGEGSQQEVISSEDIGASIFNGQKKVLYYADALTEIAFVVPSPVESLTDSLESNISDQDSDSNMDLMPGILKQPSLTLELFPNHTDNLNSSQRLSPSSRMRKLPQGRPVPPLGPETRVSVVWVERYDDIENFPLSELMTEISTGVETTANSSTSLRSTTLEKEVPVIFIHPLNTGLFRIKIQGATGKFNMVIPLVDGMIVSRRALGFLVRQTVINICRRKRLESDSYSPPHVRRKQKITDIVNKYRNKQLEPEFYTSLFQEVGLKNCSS
UniProt P20339: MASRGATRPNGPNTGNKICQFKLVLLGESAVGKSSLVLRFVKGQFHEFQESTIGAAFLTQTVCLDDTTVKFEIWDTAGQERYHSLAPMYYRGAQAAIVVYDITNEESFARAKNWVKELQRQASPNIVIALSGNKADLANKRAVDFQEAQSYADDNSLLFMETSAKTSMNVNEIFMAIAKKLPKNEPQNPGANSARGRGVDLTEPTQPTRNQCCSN
UniProt P53611: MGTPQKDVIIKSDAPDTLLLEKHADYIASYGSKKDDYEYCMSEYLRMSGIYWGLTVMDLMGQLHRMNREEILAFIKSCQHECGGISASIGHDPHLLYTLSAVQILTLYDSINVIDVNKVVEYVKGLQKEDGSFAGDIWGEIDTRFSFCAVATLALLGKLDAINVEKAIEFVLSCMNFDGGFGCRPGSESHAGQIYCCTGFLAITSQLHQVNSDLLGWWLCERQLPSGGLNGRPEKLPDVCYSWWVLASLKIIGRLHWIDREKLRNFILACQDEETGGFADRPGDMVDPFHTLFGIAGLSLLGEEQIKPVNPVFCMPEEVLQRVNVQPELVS

How the values were obtained:
Test in all cases: log2 fold change, soluble protein after heating vs DMSO (PISA); higher = thermal stabilisation; K562 lysate, 10 uM; active = over 0.2 and 3.5 SD of the protein, either way, in both replicates (recomputed)
[1] = compound: NCC(=O)Nc1ccc(-n2nc(C(F)(F)F)cc2-c2ccc3c(ccc4ccccc43)c2)cc1
In short: (§1)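 K562 pellets were dounce-homogenised in PBS pH 7.4 with 1 mM MgCl2, and the crude extract at 1 mg/mL protein was treated with 10 μM compound for 30 min. Aliquots were heated for 3 min across 48°C-58°C, pooled, and brought to 0.5% NP-40 at 4°C; soluble protein was the supernatant after 21,000xg for 90 min. Soluble protein was quantified by TMTpro 16plex LC-MS/MS with channel sums equalised, and reported as log2 fold change in thermal stability against DMSO controls, with values from duplicates.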

vorinostat = compound: O=C(CCCCCCC(=O)Nc1ccccc1)NO [vorinostat]
In short: as §1

silmitasertib = compound: O=C(O)c1ccc2c(c1)nc(Nc1cccc(Cl)c1)c1ccncc12 [silmitasertib]
In short: as §1

[2] = compound: O=C1NC(=O)C(c2cnc3ccccn23)=C1c1cn2c3c(cc(F)cc13)CN(C(=O)N1CCCCC1)CC2
In short: as §1

entospletinib = compound: c1cn2cc(-c3ccc4cn[nH]c4c3)nc(Nc3ccc(N4CCOCC4)cc3)c2n1 [entospletinib]
In short: as §1

Target	log2 fold change [1]	log2 fold change (vorinostat)	log2 fold change (silmitasertib)	log2 fold change [2]	log2 fold change (entospletinib)
PYCR1 (UniProt J3QKT4)	inactive: 0.147	inactive: 0.057	inactive: -0.138	inactive: -0.038	inactive: 0.083
QTRT1 (UniProt Q9BXR0)	inactive: 0.026	inactive: 0.094	inactive: -0.004	inactive: 0.004	inactive: -0.013
RAP1A (UniProt P62834)	inactive: 0.026	inactive: 0.147	inactive: -0.009	inactive: 0.019	inactive: -0.012
QRICH1 (UniProt Q2TAL8)	inactive: -0.016	inactive: -0.21	inactive: 0.029	inactive: -0.011	inactive: 0.003
RACK1 (UniProt P63244)	inactive: -0.022	inactive: -0.007	inactive: 0.011	inactive: -0.011	inactive: 0.027
RAB22A (UniProt Q9UL26)	inactive: 0.024	inactive: 0.087	inactive: -0.073	inactive: -0.021	inactive: 0.033
RAB6D (UniProt Q53S08)	inactive: -0.012	inactive: 0.151	inactive: -0.02	inactive: -0.011	inactive: -0.01
RAB10 (UniProt P61026)	inactive: -0.026	inactive: 0.113	inactive: -0.009	inactive: -0.006	inactive: -0.013
RAB23 (UniProt Q9ULC3)	inactive: -0.036	inactive: 0.048	inactive: 0.007	inactive: -0.073	inactive: 0.057
R3HDM1 isoform 3 (UniProt Q15032)	inactive: 0.085	inactive: -0.051	inactive: 0.029	inactive: -0.008	inactive: -0.036
RAB27A (UniProt P51159)	inactive: -0.033	inactive: -0.08	inactive: 0.066	inactive: -0.009	inactive: 0.023
RAP2A (UniProt P10114)	inactive: -0.035	inactive: 0.139	inactive: -0.005	inactive: 0.045	inactive: -0.067
RABGAP1 (UniProt Q9Y3P9)	inactive: -0.006	inactive: -0.038	inactive: -0.006	inactive: -0.004	inactive: 0.01
RACK1 (UniProt D6RHH4)	inactive: -0.04	–	–	–	–
RABEP2 (UniProt Q9H5N1)	inactive: 0.062	inactive: -0.072	inactive: -0.008	inactive: 0.031	inactive: -0.028
RAB11B (UniProt Q15907)	inactive: 0.002	inactive: 0.187	inactive: -0.003	inactive: -0.02	inactive: -0.033
RAB3IL1 (UniProt Q8TBN0)	inactive: -0.006	active: -0.268	inactive: 0.025	inactive: 0.07	inactive: 0.015
RABAC1 (UniProt Q9UI14)	inactive: -0.028	inactive: 0.025	inactive: 0.042	inactive: -0.042	inactive: -0.007
PXK (UniProt Q7Z7A4)	inactive: 0.043	inactive: -0.092	inactive: -0.085	inactive: -0.018	inactive: 0.021
RAD1 (UniProt O60671)	inactive: 0.065	inactive: -0.075	inactive: -0.011	inactive: 0	inactive: -0.049
RAD50 isoform 2 (UniProt Q92878)	inactive: -0.005	active: -0.458	inactive: 0.024	inactive: -0.009	inactive: -0.003
RALGAPB (UniProt Q86X10)	inactive: 0.004	active: -0.299	inactive: 0.017	inactive: -0.017	inactive: -0.029
RAB5A (UniProt P20339)	inactive: 0.054	inactive: 0.041	inactive: -0.022	inactive: 0.038	inactive: -0.013
RABGGTB (UniProt P53611)	inactive: -0.058	active: -0.286	inactive: 0.006	inactive: -0.005	inactive: -0.044
RANBP17 (UniProt Q9H2T7)	inactive: 0.031	inactive: -0.192	inactive: -0.075	inactive: -0.019	inactive: 0.03

Laid out differently: entries from further up

| Target | log2 fold change [1] | log2 fold change (vorinostat) | log2 fold change (silmitasertib) | log2 fold change [2] | log2 fold change (entospletinib) |
| --- | --- | --- | --- | --- | --- |
| QTRT1 (UniProt Q9BXR0) | inactive: 0.026 | inactive: 0.094 | inactive: -0.004 | inactive: 0.004 | inactive: -0.013 |
| RAP2A (UniProt P10114) | inactive: -0.035 | inactive: 0.139 | inactive: -0.005 | inactive: 0.045 | inactive: -0.067 |
| RABGAP1 (UniProt Q9Y3P9) | inactive: -0.006 | inactive: -0.038 | inactive: -0.006 | inactive: -0.004 | inactive: 0.01 |
| RAB11B (UniProt Q15907) | inactive: 0.002 | inactive: 0.187 | inactive: -0.003 | inactive: -0.02 | inactive: -0.033 |
| PXK (UniProt Q7Z7A4) | inactive: 0.043 | inactive: -0.092 | inactive: -0.085 | inactive: -0.018 | inactive: 0.021 |
